# Reference: the supplement of paper PMC8728848
# The other results are listed elsewhere or left out.
# Columns and labels:
# Experiment in all cases: glycan array binding signal (z-score within array); higher = stronger binding
# Settings in all cases: glycan notation: IUPAC condensed, linker removed
# [1] = biological target: Fuc(a1-2)Gal
# Outline: (§1)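 The Consortium for Functional Glycomics database supplied 3228 glycan arrays, of which those lacking an available protein sequence were dropped. The binding signal, a within-array Z-score, was averaged across arrays of the same protein sequence and across linkers. Negative scores can be read as non-binding.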
# [2] = biological target: Fuc(a1-2)Gal(b1-3)GalNAc
# Outline: as §1
# [3] = biological target: Fuc(a1-2)Gal(b1-3)GalNAc(a1-3)[Fuc(a1-2)]Gal(b1-4)Glc
# Outline: as §1
# [4] = biological target: Fuc(a1-2)Gal(b1-3)GalNAc(a1-3)[Fuc(a1-2)]Gal(b1-4)GlcNAc
# Outline: as §1
# [5] = biological target: Fuc(a1-2)Gal(b1-3)GalNAc(b1-3)Gal
# Outline: as §1
# [6] = biological target: Fuc(a1-2)Gal(b1-3)GalNAc(b1-3)Gal(a1-4)Gal(b1-4)Glc
# Outline: as §1
# [7] = biological target: Fuc(a1-2)Gal(b1-3)GalNAc(b1-4)[Neu5Ac(a2-3)]Gal(b1-4)Glc
# Outline: as §1
# [8] = biological target: Fuc(a1-2)Gal(b1-3)GlcNAc
# Outline: as §1
# [9] = biological target: Fuc(a1-2)Gal(b1-3)GlcNAc(b1-2)Man(a1-3)[Fuc(a1-2)Gal(b1-3)GlcNAc(b1-2)Man(a1-6)]Man(b1-4)GlcNAc(b1-4)GlcNAc
# Outline: as §1
# [10] = biological target: Fuc(a1-2)Gal(b1-3)GlcNAc(b1-2)Man(a1-3)[Fuc(a1-2)Gal(b1-3)GlcNAc(b1-2)Man(a1-6)]Man(b1-4)GlcNAc(b1-4)[Fuc(a1-6)]GlcNAc
# Outline: as §1
# [11] = biological target: Fuc(a1-2)Gal(b1-3)GlcNAc(b1-3)Gal(b1-4)Glc
# Outline: as §1
# [12] = biological target: Fuc(a1-2)Gal(b1-3)GlcNAc(b1-3)GalNAc
# Outline: as §1
# [13] = biological target: Fuc(a1-2)Gal(b1-3)GlcNAc(b1-3)[Fuc(a1-2)Gal(b1-3)GlcNAc(b1-6)]GalNAc
# Outline: as §1
# [14] = biological target: Fuc(a1-2)Gal(b1-3)GlcNAc(b1-3)[Gal(b1-4)GlcNAc(b1-6)]Gal(b1-4)Glc
# Outline: as §1
# [15] = biological target: Fuc(a1-2)Gal(b1-3)GlcNAc(b1-3)[Neu5Ac(a2-6)Gal(b1-4)GlcNAc(b1-6)]Gal(b1-4)Glc
# Outline: as §1
# [16] = biological target: Fuc(a1-2)Gal(b1-3)GlcNAc6S
# Outline: as §1
# [17] = biological target: Fuc(a1-2)Gal(b1-3)[Fuc(a1-4)]GlcNAc
# Outline: as §1
# [18] = biological target: Fuc(a1-2)Gal(b1-3)[Fuc(a1-4)]GlcNAc(b1-2)Man(a1-3)[Fuc(a1-2)Gal(b1-3)[Fuc(a1-4)]GlcNAc(b1-2)Man(a1-3)]Man(b1-4)GlcNAc(b1-4)GlcNAc
# Outline: as §1
# [19] = biological target: Fuc(a1-2)Gal(b1-3)[Fuc(a1-4)]GlcNAc(b1-2)Man(a1-3)[Fuc(a1-2)Gal(b1-3)[Fuc(a1-4)]GlcNAc(b1-2)Man(a1-6)]Man(b1-4)GlcNAc(b1-4)[Fuc(a1-6)]GlcNAc(b1-4)[Fuc(a1-6)]GlcNAc
# Outline: as §1
# [20] = biological target: Fuc(a1-2)Gal(b1-3)[Fuc(a1-4)]GlcNAc(b1-3)[Fuc(a1-3)[Gal(b1-4)]GlcNAc(b1-6)]Gal(b1-4)Glc
# Outline: as §1
# [21] = biological target: Fuc(a1-2)Gal(b1-3)[Fuc(a1-4)]GlcNAc(b1-3)[Gal(b1-4)GlcNAc(b1-6)]Gal(b1-4)Glc
# Outline: as §1
# [22] = biological target: Fuc(a1-2)Gal(b1-4)Glc
# Outline: as §1
# [23] = biological target: Fuc(a1-2)Gal(b1-4)Glc6S
# Outline: as §1
# [24] = biological target: Fuc(a1-2)Gal(b1-4)GlcNAc
# Outline: as §1
# [25] = biological target: Fuc(a1-2)Gal(b1-4)GlcNAc(b1-2)Man
# Outline: as §1
# [26] = biological target: Fuc(a1-2)Gal(b1-4)GlcNAc(b1-2)Man(a1-3)[Fuc(a1-2)Gal(b1-4)GlcNAc(b1-2)Man(a1-6)]Man(b1-4)GlcNAc(b1-4)GlcNAc
# Outline: as §1
# [27] = biological target: Fuc(a1-2)Gal(b1-4)GlcNAc(b1-2)Man(a1-3)[Fuc(a1-2)Gal(b1-4)GlcNAc(b1-2)Man(a1-6)]Man(b1-4)GlcNAc(b1-4)[Fuc(a1-6)]GlcNAc
# Outline: as §1
# [28] = biological target: Fuc(a1-2)Gal(b1-4)GlcNAc(b1-2)[Fuc(a1-2)Gal(b1-4)GlcNAc(b1-4)]Man(a1-3)[Fuc(a1-2)Gal(b1-4)GlcNAc(b1-2)Man(a1-6)]Man(b1-4)GlcNAc(b1-4)GlcNAc
# Outline: as §1
# [29] = biological target: Fuc(a1-2)Gal(b1-4)GlcNAc(b1-3)Gal(b1-4)GlcNAc
# Outline: as §1
# [30] = biological target: Fuc(a1-2)Gal(b1-4)GlcNAc(b1-3)Gal(b1-4)GlcNAc(b1-2)Man(a1-3)[Fuc(a1-2)Gal(b1-4)GlcNAc(b1-3)Gal(b1-4)GlcNAc(b1-2)Man(a1-6)]Man(b1-4)GlcNAc(b1-4)GlcNAc
# Outline: as §1
binder,measurement,setting,value
PX14343I-pdi-501-30-501 (Parabacteroides distasonis) (protein) SDQYSTETFWKTKEHASAGIMGCYNALKLWRSLHTMEFDMLTANAMPYNEANGTQAIGKGEHLSTTALIGSLWKNCYVGIGRTNTFIANVGGVDMDESEKAKMVGEAKFLRAFYYLSLVDKFGGVPLIIDAPNADEQAELPRNSKEEVVNQIVKDLEEAAAVLPDTYASSDLGRATKGAALALKARTLLYNSRWAEAAQAAKQVMESGVYQLFNDYRHFFSEDNKYNCEVIFDIEAKLPEYPTDYDQNIWRLNRPAPLKELVDTYLCVDGKTIEESPLYDPTRPYENRDPRLLKSIVCIGYPYLGKTITKEDVATTGFGVKKYTSYEDDVTIPLVERSAFNFILIRYAEVLLTYAEAQNEASGPDQSVYDAINQLRRRPDINMPEVPKGLTKDQMREVIRRERRIELTFEGLYYSDILRWKTAEKENNGMMHNYEGIEVVKRSFNPKRDYLWPIPYNQTVLNPNLEQNPNWD,glycan array binding signal (z-score),[1],-0.249
same,glycan array binding signal (z-score),[2],-0.188
same,glycan array binding signal (z-score),[3],-0.132
same,glycan array binding signal (z-score),[4],0.236
same,glycan array binding signal (z-score),[5],-0.11
same,glycan array binding signal (z-score),[6],-0.216
same,glycan array binding signal (z-score),[7],0.508
same,glycan array binding signal (z-score),[8],-0.248
same,glycan array binding signal (z-score),[9],1.95
same,glycan array binding signal (z-score),[10],-0.722
same,glycan array binding signal (z-score),[11],0.051
same,glycan array binding signal (z-score),[12],-1.16
same,glycan array binding signal (z-score),[13],-0.183
same,glycan array binding signal (z-score),[14],-0.005
same,glycan array binding signal (z-score),[15],0.025
same,glycan array binding signal (z-score),[16],0.8
same,glycan array binding signal (z-score),[17],-0.308
same,glycan array binding signal (z-score),[18],0.312
same,glycan array binding signal (z-score),[19],-1.15
same,glycan array binding signal (z-score),[20],-0.886
same,glycan array binding signal (z-score),[21],-0.601
same,glycan array binding signal (z-score),[22],0.184
same,glycan array binding signal (z-score),[23],0.395
same,glycan array binding signal (z-score),[24],-0.723
same,glycan array binding signal (z-score),[25],-0.202
same,glycan array binding signal (z-score),[26],0.226
same,glycan array binding signal (z-score),[27],-0.133
same,glycan array binding signal (z-score),[28],1.69
same,glycan array binding signal (z-score),[29],0.519
same,glycan array binding signal (z-score),[30],0.328

# 2 neighbouring entries already listed, quoted:
binder,measurement,setting,value
PX14343I-pdi-501-30-501 (Parabacteroides distasonis) (protein) SDQYSTETFWKTKEHASAGIMGCYNALKLWRSLHTMEFDMLTANAMPYNEANGTQAIGKGEHLSTTALIGSLWKNCYVGIGRTNTFIANVGGVDMDESEKAKMVGEAKFLRAFYYLSLVDKFGGVPLIIDAPNADEQAELPRNSKEEVVNQIVKDLEEAAAVLPDTYASSDLGRATKGAALALKARTLLYNSRWAEAAQAAKQVMESGVYQLFNDYRHFFSEDNKYNCEVIFDIEAKLPEYPTDYDQNIWRLNRPAPLKELVDTYLCVDGKTIEESPLYDPTRPYENRDPRLLKSIVCIGYPYLGKTITKEDVATTGFGVKKYTSYEDDVTIPLVERSAFNFILIRYAEVLLTYAEAQNEASGPDQSVYDAINQLRRRPDINMPEVPKGLTKDQMREVIRRERRIELTFEGLYYSDILRWKTAEKENNGMMHNYEGIEVVKRSFNPKRDYLWPIPYNQTVLNPNLEQNPNWD,glycan array binding signal (z-score),[27],-0.133
same,glycan array binding signal (z-score),[28],1.69
